Data published in patent US20160235836A1 (LOS ALAMOS NATIONAL SECURITY LC TAS, published 2016).

Molecular target: T1, CD4 (UniProt P01730 26-396)
T1 construct: also called sCD4
Experiment: SPR, single-shot kinetics

B1: Mmos3.3 gp120 (global mosaic HIV Env protein) (other)
chain: SDNLWVTVYYGVPVWRDADTTLFCASDAKAYDTEVHNVWATHACVPTDPNPQEIHLENVTENFNMWKNNMVEQMQEDVISLWDQSLKPCVKLTPLCVTLNCTKANLTNINETTASNGIGNITDEVRNCSFNMTTLLSDKKRLVHALFYKLDIVPIKDNQNSSVSSGEYRLINCNTSVIKQACPKVTFDPIPIHYCTPAGYAILKCNDKNFNGTGPCKNVSSVQCTHGIKPVVSTQLLLNGSLAEEEIIIRSENLTNNAKTIIVHLNKSVEINCTRPSNNTRTSVRIGPGQVFYRTGDIIGDIRQAYCEINGTKWNETLRQVAKKLKEHFNKTIIFQPPSGGDLEITMHHFNCRGEFFYCNTTKLFNSTWIGNETMVEGNNNDTIILPCRIKQIINMWQGVGQAMYAPPISGIINCVSNITGILLTRDGGSGDNATETFRPGGGNIKDNWRSELYKYKVVEIEPLGIAPTKAKRRVVEREKR
With B1 the Kd was 8.4 nM.
